These results are taken from US20220025045A1.

These are yes or no findings as the source states them, for the method shown. A result given as binding can be weak or reduced; the word gives no strength.

What all share (experiment): flow cytometry, CHO cells
Experiment [1] deals with anchored ILT2 D1 domain fragment protein (human).
For experiment [2], the target named is anchored ILT2 D1-D2 domain fragment protein (human).
The target of experiment [3] is anchored ILT2 D1-D2-D3 domain fragment protein (human).

B1: 12D12 (antibody, human IgG1, V domains shown)
VH: QVQLQQPGAELVKPGASVRMSCKASGYTFTSYWVHWVKQRPGQGLEWIGVIDPSDSYTSYNQNFKGKATLTVDTSSKTAYIHLSSLTSEDSAVYFCARGERYDGDYFAMDYWGQGTSVTVSS
VL: DIVMTQSPASLSVSVGETVTITCRASENIYSNLAWYQQKQGKSPQLLVYAATNLADGVPSRFSGSRSGTQYSLKINSLQSEDFGTYYCQHFWNTPRTFGGGTKLEIK
Turning to B1, the binding entry in experiment [1], in experiment [2] and in experiment [3] was “binds” throughout.

B2: 27H5 (antibody, human IgG1, V domains shown)
VH: QVQLKESGPGLVAPSQSLSITCTVSGFSLTSYGVSWVRQPPGKGLEWLGVIWGDGNTNYHSALISRLSISKDNSKSQVFLKLNSLQTDDTATYYCARTNWDGWFAYWGQGTLVTVSA
VL: DIVMTQSHKFMSTSVGDRVSITCKASQDVGTAVAWYQQKPGQSPKLLIYWASTRHTGVPDRFTGSGSGTDFTLTISNVQSEDLADYFCQQYRSYPLGTFGGGTKLEIK
On to B2, for which the binding result in experiment [1], in experiment [2] and in experiment [3] was “binds” each time.

B3: 1E4C (antibody, human IgG1, V domains shown)
VH: QRELQQSGPELVKPGASVNISCKASGYSFTNHYINWVKQRPGQGLEWIGWIFPGNGDTNYNEKFKGKATLTADTSSSTAYMQLSSLTSEDSAVYFCARTWNYDARWGYWGQGTTVTVSS
VL: DVVMTQTPAFLAVSLGQRATISCRASESIDSYGISFMHWYQQKPGQPPKVLIYRTSNLESGIPARFSGSGSRTDFTLTINPVEADDVATYYCQQSNEDPFTFGSGTKLEIK
For the molecule B3, the binding entry in experiment [1] and in experiment [2] was “binds” each time.

B4: 3A7A (antibody, human IgG1, V domains shown)
VH: QVQLKESGPELVKPGTSVKISCKASGYNFRNYYIQWVKQRPGQGLEWIGWIFPGNNETNYNEKFKGKATLSADTSSTTAYMQLSSLTSEDSAVYFCARSWNYDARWGYWGQGTTVTVSS
VL: DVVMTQTPASLAVSLGQRATISCRASEIIDNYGISFIHWYQQKPGQPPKLLIYRASNLESGIPARFSGSGSRTDSTLTINPVGADDVATYYCQQSNEDPFTFGSGTKLELK
Consider B4, for which the binding result in experiment [1] and in experiment [2] was “binds” throughout.

B5: 1A9 (antibody, human IgG1, V domains shown)
VH: EVKLQQSGPDLVKPGASVKISCKASGYSFTNFYIHWVKQRPGQGLEWIGWIFPGNGETNYSEKFKGKATLTADTSSSTAYMQFNSLTYEDSAVYFCARTWNYDARWGYWGQGTTLTVSS
VL: DVVMTQTPASLAVSLGQRATISCRASDGIDSYGISFMRWYQQKPGQPPTLLIYRASTLESGIPARFSGSGSRTNFTLTINPVEADDVATYYCQQTNEDPFTFGSGTKLEIK
B5: the binding entry in experiment [1] and in experiment [2] was “binds” in each case.

B6: 3H5 (antibody, human IgG1, V domains shown)
VH: QVQLKESGPGLVAPSQSLSITCTVSGFSLTSYGVSWVRQPPGKGLEWLGVIWGDGSTNYHSALISRLSISKDNSKSQVFLKLNSLQTDDTATYYCAKPRWDDYAMDYWGQGTSVTVSS
VL: DIQMTQTTSSLSASLGDRVTISCRASQDISNYLNWYQQKPDGTVKLLIYYTSRLHSGVPSRFSGSGSGTDYSLTISNLEQEDIATYFCQQGNTLWTFGGGTKLEIK
Turning to B6, the binding result in experiment [1], in experiment [2] and in experiment [3] was “binds” each time.

B7: 48F12 (antibody, V domains shown)
VH: QVQLKESGPGLVAPSQSLSITCTVSGFSLTSYGVSWVRQPPGKGLEWLGIIWGDGSTNYHSALVSRLSISKDNSKSQVFLKLNSLQTDDTATYYCAKPNWDYYAMDYWGQGTSVTVSS
VL: DIQMTQTTSSLSASLGDRVTISCRASQDISNYLNWYQQKVDGTVKLLISYTSRLHSGVPSRFSGSGSGTDYSLTISNLEQEDIATYFCQQGITLPLTFGAGTKLELK
Take B7: the binding entry in experiment [1], in experiment [2] and in experiment [3] was “binds” each time.
